Assay [1] concerns the target NB1, N-terminal (acceptor-binding) domain of Arabidopsis thaliana UGT74B1 (Arabidopsis thaliana) (UniProt O48676). Kind of assay: SEC; IMAC-purified dimer on Superdex 200 Increase 10/300 GL, 200 mM NaCl, 50 mM Tris-HCl pH 8.0; both purified.
For assay [2] the target is unchanged. Kind of assay: pull-down; N-terminal His-tagged N-domain and untagged C-domain co-expressed from two plasmids in E. coli BL21 (DE3); clarified lysate on His-Trap / Ni-NTA (IMAC), imidazole elution; eluate analysed by SDS-PAGE and peptide mass fingerprinting.

The values below come from paper PMC10937113, ““Mix and match” auto-assembly of glycosyltransferase domains delivers biocatalysts with improved substrate promiscuity” (The Journal of Biological Chemistry, 2024).

No constants are given. Whether binding was seen depends on the method and setting. A result given as binding can be weak or reduced; the word gives no strength. For some of these results: In cells and extracts the contact can be indirect.

B1: CB1, C-terminal (sugar donor-binding) domain of Arabidopsis thaliana UGT74B1 (domain or fragment, UniProt O48676 254-460)
chain: GASLLKPISKECMEWLETKQAQSVAFVSFGSFGILFEKQLAEVAIALQESDLNFLWVIKEAHIAKLPEGFVESTKDRALLVSWCNQLEVLAHESIGCFLTHCGWNSTLEGLSLGVPMVGVPQWSDQMNDAKFVEEVWKVGYRAKEEAGEVIVKSEELVRCLKGVMEGESSVKIRESSKKWKDLAVKAMSEGGSSDRSINEFIESLGK
Consider B1, for which the binding entry in assay [1] and in assay [2] was “binds” throughout.

B2: CC1, C-terminal (sugar donor-binding) domain of Arabidopsis thaliana UGT74C1 (domain or fragment, UniProt Q9SKC1 250-457)
chain: ELENSKTEPDESVLKWLGNRPAKSVVYVAFGTLVALSEKQMKEIAMAISQTGYHFLWSVRESERSKLPSGFIEEAEEKDSGLVAKWVPQLEVLAHESIGCFVSHCGWNSTLEALCLGVPMVGVPQWTDQPTNAKFIEDVWKIGVRVRTDGEGLSSKEEIARCIVEVMEGERGKEIRKNVEKLKVLAREAISEGGSSDKKIDEFVALLT
For B2, the binding entry in assay [1] and in assay [2] was “binds” each time.
